From the supplement of paper PMC3334620
In all, about 33,000 sequences were measured (“E-score (-0.5 to 0.5)”: median about -0.015, highest 2% from about 0.3 on). The list shows a part of the results.

What follows are sequences tested against T1, Abf1 (UniProt P14164) (assay: PBM E-score (8-mer binding enrichment) (E-score (-0.5 to 0.5)); higher = stronger / more preferred TF binding). Conditions: protein concentration: 200 nM; construct: GST-full length.
T1 sequence: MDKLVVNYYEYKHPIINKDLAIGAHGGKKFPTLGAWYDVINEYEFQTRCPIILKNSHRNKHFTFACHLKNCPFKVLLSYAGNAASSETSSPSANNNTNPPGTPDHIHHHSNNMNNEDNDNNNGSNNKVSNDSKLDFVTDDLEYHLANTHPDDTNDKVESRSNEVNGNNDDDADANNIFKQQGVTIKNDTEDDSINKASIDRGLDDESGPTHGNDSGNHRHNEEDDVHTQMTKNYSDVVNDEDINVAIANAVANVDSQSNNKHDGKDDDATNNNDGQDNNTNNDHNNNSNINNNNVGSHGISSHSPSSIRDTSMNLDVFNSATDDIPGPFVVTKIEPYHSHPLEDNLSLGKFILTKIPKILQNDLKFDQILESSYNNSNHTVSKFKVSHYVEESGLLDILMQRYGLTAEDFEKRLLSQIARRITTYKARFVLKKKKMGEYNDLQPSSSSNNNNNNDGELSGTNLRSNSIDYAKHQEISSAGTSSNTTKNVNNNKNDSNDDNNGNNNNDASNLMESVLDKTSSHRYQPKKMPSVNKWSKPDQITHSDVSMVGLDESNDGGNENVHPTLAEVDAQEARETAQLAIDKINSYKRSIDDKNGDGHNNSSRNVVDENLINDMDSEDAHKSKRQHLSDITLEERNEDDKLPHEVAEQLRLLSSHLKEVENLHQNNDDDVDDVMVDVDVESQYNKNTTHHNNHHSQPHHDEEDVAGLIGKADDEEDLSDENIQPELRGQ
Procedure, shortened: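 E-scores (a modified Wilcoxon-Mann-Whitney statistic) were assigned by the Universal PBM Analysis Suite to every ungapped eight-base word pooled with its reverse complement. The input came from universal all-10-mer Agilent arrays made double-stranded by primer extension and probed with GST-tagged yeast transcription factors at about 100-200 nM. Fluorescent anti-GST detected bound protein, and masliner normalised the scans.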

Sequence | PBM E-score
TCCAGAGA | -0.145
CCGATACC | -0.101
TCAATAAA | 0.0473
AGAGGACC | -0.254
CTTTTGGA | -0.0138
GGTTTTGA | 0.066
GGTTCAGA | -0.111
AGTGCGAT | -0.00019
TCTGCCCA | -0.0147
ACCATCTC | -0.0694
CCCTCACA | -0.144
AAAGAACT | 0.0334
GCATGGTA | -0.0541
CTTCACGA | 0.2
AGTATCGC | 0.0404
ATTCAGGA | -0.066
CCATATGA | 0.0353
ATAGAGGC | -0.063
TATTCGCA | 0.134
CGAACAAA | 0.133
GTATCGAA | 0.136
CTTTTCGA | -0.0876
ATCTCCTG | 0.197
CCCACCGC | -0.25
GACCTCAA | -0.0678

Sequence | PBM E-score
CAGCGAAG | -0.223
TCTCTAAA | 0.0546
GCGGCGCC | -0.00849
CAACCGAG | -0.0944
GCACGCCA | -0.243
ATTGTTCG | 0.131
GCTCGAAA | -0.0348
GCGGGGCC | -0.0911
ACAGTCCG | -0.0014
ACCCTATG | 0.0253
CGTATTAA | 0.258
ACTCTCGA | -0.00599
AGCTAGGG | -0.309
CAGCCCAC | -0.111
AAAGCTGT | -0.0712
GCCAATAA | 0.0249
CTTCTTAC | 0.207
ACTAAGTC | 0.142
TATAAAGA | 0.0343
CCCGGCCC | -0.267
ACTATCGC | 0.0846
AACCATCC | -0.129
AACCTACC | -0.137
AATACGAG | 0.221
AATGAACG | -0.00352

Sequence | PBM E-score
CAGGCTCC | -0.169
AACAAAAT | 0.0674
CCGCTCTA | -0.147
AGGAGGAC | -0.284
CGAACACC | -0.02
CATAGTTC | -0.00457
CTGGGGGA | -0.323
CAATGGGG | -0.195
AACCACGG | 0.229
ATATAATC | 0.126
GCATGGCC | -0.196
TCGTACGA | 0.455
GCCTTCCC | -0.303
CGGCATTA | 0.0689
ATTGGGCC | -0.0964
CCCAGCGG | -0.182
AGTGGAAC | -0.0559
CTGGGTAC | -0.097
AGCGAACC | -0.113
AGGTCACT | 0.304
ACGGTAGG | -0.0731
TCCGTAGA | 0.143
TAAACCTA | 0.102
CAGGCTTA | -0.246
GATATAGA | 0.0944

Sequence | PBM E-score
CATACGGC | 0.346
AGGGCGCC | -0.0691
AAACCGTA | 0.221
AATCATCC | 0.215
ATTCGCTA | -0.00605
ATGATCTA | 0.297
CGATAGCA | 0.00986
CTCATCAA | 0.192
ACGGTTGG | 0.0215
CGACCCCA | -0.0475
CTCAACCA | -0.242
AGGCTAGA | -0.228
CTGTCTGC | -0.243
CCTTCTAG | -0.139
ACTAGGCT | -0.12
CACGCACC | 0.0197
ACCAGTAC | -0.02
AACGCATC | -0.00058
AAAGATAG | -0.00204
CTAATGAA | 0.0665
AAGTCTCA | -0.14
ACTAACAC | 0.00501
AGTTAAGC | 0.00046
CGCGAAAA | 0.102
CTTGGAGA | -0.106

Sequence | PBM E-score
CCTAATCG | 0.215
CTTTTGAA | 0.0454
CAGGCCCG | -0.265
ACATACTG | 0.0484
CACTCACG | -0.0286
AACGGAAA | 0.218
ATAATACG | 0.164
CGGTGCTC | 0.0352
GTCCAGCA | -0.0732
AGTCTCGA | -0.199
CTTCTCCC | -0.177
CGGCGCTC | 0.0722
TCGCGTAA | -0.0242
AGAAATCG | 0.0412
GACTCATA | -0.0291
CTGATACC | 0.0242
CACGAGCG | 0.0546
GGACCCAC | -0.174
CAGTGTAA | 0.162
GGCACAAA | -0.0041
GACAAAGA | 0.168
AGCTCCGG | -0.208
CTACGACC | 0.12
CACTCCTC | -0.0559
GAGGATGA | 0.0128

Some of the entries so far, in markdown.

| Sequence | PBM E-score |
| --- | --- |
| GATATAGA | 0.0944 |
| CATACGGC | 0.346 |
| AGGGCGCC | -0.0691 |
| AAACCGTA | 0.221 |
| AATCATCC | 0.215 |
| ATTCGCTA | -0.00605 |
| ATGATCTA | 0.297 |
| CGATAGCA | 0.00986 |
| CTCATCAA | 0.192 |
| ACGGTTGG | 0.0215 |
| CGACCCCA | -0.0475 |
| CTCAACCA | -0.242 |
| AGGCTAGA | -0.228 |
| CTGTCTGC | -0.243 |
| CCTTCTAG | -0.139 |
| ACTAGGCT | -0.12 |
| CACGCACC | 0.0197 |
| ACCAGTAC | -0.02 |
| AACGCATC | -0.00058 |
| AAAGATAG | -0.00204 |
| CTAATGAA | 0.0665 |
| AAGTCTCA | -0.14 |
| ACTAACAC | 0.00501 |
| AGTTAAGC | 0.00046 |
| CGCGAAAA | 0.102 |
| CTTGGAGA | -0.106 |
| CCTAATCG | 0.215 |
| CTTTTGAA | 0.0454 |
| CAGGCCCG | -0.265 |
| ACATACTG | 0.0484 |
| CACTCACG | -0.0286 |
| AACGGAAA | 0.218 |
| ATAATACG | 0.164 |
| CGGTGCTC | 0.0352 |
| GTCCAGCA | -0.0732 |
| AGTCTCGA | -0.199 |
| CTTCTCCC | -0.177 |
| CGGCGCTC | 0.0722 |
| TCGCGTAA | -0.0242 |
| AGAAATCG | 0.0412 |
| GACTCATA | -0.0291 |
| CTGATACC | 0.0242 |
| CACGAGCG | 0.0546 |
| GGACCCAC | -0.174 |
| CAGTGTAA | 0.162 |
| GGCACAAA | -0.0041 |
| GACAAAGA | 0.168 |
| AGCTCCGG | -0.208 |
| CTACGACC | 0.12 |

Next records:

Sequence | PBM E-score
AGACCATC | -0.195
CAGGTCTA | 0.00166
AGGAGCTC | -0.229
AACCATTA | 0.0146
CCGGTCTA | -0.142
ACGGAAGA | 0.0695
ATACACCG | -0.118
ATATTATA | 0.254
CCGTACCG | 0.25
ATTTAGAA | 0.138
AAGCGGCC | -0.00927
CGGCCTGA | -0.207
CTAGACCA | -0.194
CTGGTCAA | -0.112
AGGCGACT | -0.00342
CCTAAGGA | 0.151
ACTTCGGA | -0.0162
AGAAAGCG | -0.038
CCCTATGC | -0.16
ATGGGTAA | -0.0977
GTGGCAAC | -0.197
CTTACTCC | -0.0554
ACTCCCCA | -0.125
AGTGTCTA | 0.0728
CCGCCCCA | -0.136

Sequence | PBM E-score
CGTAATCA | 0.293
ACTTACAA | 0.134
AAGAGTAA | 0.0442
ATTCCTCG | -0.0559
AACCGTAT | 0.238
CTATAGTC | 0.0309
CAACACCG | -0.157
AAGCTGAC | -0.134
CCGGCATC | -0.072
ATTGAAGG | -0.134
CCTGTGAC | -0.00317
CAAACGGC | 0.0725
CCTTCGTC | 0.0914
CTCCGCCC | -0.291
GCAGAGTA | 0.0817
GAGTATTA | 0.171
AATAGCGG | -0.183
AGCGTAGC | 0.141
GAGATTGC | -0.126
AAAAGGAC | -0.128
AACCACTG | -0.111
GAGCCCGA | -0.04
